# The supplement of paper PMC10849652
# Sequences of proteins named here, by UniProt entry; tags and fusion partners are left off. A change or cut given only in a name is not applied to a line headed by its entry.
# UniProt O94992, whole entry, looked up: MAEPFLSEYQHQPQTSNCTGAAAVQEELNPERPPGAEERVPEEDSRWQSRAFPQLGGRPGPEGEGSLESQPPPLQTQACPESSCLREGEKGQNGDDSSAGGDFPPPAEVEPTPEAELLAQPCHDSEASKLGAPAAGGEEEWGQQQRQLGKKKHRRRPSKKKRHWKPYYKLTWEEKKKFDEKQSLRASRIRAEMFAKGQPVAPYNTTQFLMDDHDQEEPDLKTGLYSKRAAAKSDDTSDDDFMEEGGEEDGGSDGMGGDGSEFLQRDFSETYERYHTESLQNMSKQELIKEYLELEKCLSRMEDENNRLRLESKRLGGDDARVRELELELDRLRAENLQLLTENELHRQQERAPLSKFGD
# UniProt P17096: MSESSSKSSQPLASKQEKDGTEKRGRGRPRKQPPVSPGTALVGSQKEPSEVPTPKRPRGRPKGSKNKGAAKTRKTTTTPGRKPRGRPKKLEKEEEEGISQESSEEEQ
# UniProt Q9Y241: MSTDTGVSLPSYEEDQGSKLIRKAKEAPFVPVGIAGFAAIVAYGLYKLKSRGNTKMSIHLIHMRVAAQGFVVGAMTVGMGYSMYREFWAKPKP
# UniProt Q8NCD3, whole entry, looked up: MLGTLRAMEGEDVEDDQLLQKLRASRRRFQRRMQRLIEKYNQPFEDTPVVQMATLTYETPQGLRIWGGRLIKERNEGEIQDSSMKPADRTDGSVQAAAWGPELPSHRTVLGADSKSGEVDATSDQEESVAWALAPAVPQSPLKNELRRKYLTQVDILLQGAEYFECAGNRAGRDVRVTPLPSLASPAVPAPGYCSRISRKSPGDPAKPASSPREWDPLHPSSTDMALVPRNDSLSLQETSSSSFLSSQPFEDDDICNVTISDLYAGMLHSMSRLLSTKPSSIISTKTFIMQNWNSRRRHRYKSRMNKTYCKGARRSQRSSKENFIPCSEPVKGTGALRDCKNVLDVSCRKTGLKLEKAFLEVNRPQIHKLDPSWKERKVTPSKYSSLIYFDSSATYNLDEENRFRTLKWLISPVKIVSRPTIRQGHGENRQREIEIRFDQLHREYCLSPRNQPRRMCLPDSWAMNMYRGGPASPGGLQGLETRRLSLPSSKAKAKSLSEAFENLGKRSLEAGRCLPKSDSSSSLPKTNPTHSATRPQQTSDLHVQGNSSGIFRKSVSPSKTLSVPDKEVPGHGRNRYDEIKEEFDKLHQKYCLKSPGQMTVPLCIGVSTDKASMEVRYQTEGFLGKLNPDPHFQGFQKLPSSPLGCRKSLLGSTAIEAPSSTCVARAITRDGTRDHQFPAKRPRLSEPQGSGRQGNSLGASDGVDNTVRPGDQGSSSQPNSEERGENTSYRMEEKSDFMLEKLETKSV
# UniProt P56937: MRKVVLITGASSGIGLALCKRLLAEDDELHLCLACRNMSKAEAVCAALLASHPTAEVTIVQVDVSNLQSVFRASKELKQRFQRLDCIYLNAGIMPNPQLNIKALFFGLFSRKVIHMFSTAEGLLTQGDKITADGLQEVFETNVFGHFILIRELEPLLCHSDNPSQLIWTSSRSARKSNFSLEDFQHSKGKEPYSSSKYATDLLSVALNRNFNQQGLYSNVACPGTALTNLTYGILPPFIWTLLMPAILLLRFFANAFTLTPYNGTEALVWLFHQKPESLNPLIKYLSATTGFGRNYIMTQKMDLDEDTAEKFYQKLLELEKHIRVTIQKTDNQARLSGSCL
# Some of the results follow.
# Experiments:
# Test in all cases: log2 fold change, soluble protein after heating vs DMSO (PISA); higher = thermal stabilisation; K562 lysate, 10 uM; active = over 0.2 and 3.5 SD of the protein, either way, in both replicates (recomputed)
# [1] = compound: CS(=O)(=O)CCNCc1ccc(-c2ccc3ncnc(Nc4ccc(OCc5cccc(F)c5)c(Cl)c4)c3c2)o1 [lapatinib]
# Procedure, shortened: (§1)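 The values are log-two fold changes in thermal stability compared with solvent controls and come from duplicates. They were obtained by TMTpro 16plex LC-MS/MS, with channel sums equalised, on the supernatant after 21,000xg for 90 min. That supernatant came from crude K562 extract at 1 mg/mL protein treated with 10 μM compound for 30 min, heated for 3 min across 48°C-58°C, pooled and brought to 0.5% NP-40 at 4°C.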
# [2] = compound: CS(=O)(=O)N1CCN(Cc2cc3nc(-c4cccc5[nH]ncc45)nc(N4CCOCC4)c3s2)CC1 [pictilisib]
# Procedure, shortened: as §1
# [3] = compound: C[C@@H](Oc1cc(-c2cnn(C3CCNCC3)c2)cnc1N)c1c(Cl)ccc(F)c1Cl [crizotinib]
# Procedure, shortened: as §1
# [4] = compound: C[C@H](C1=CC=C(C=C1)C(=O)NC2=C3C=CNC3=NC=C2)N
# Procedure, shortened: as §1
# [5] = compound: C[C@H](Nc1ncnc2nc[nH]c12)c1cc2cccc(Cl)c2c(=O)n1-c1ccccc1 [duvelisib]
# Procedure, shortened: as §1
# [6] = compound: Cc1cc(Nc2cc(CN3CCOCC3)c3nc(C)c(Cc4ccc(Cl)cc4F)n3n2)n[nH]1 [gandotinib]
# Procedure, shortened: as §1
# [7] = compound: Cc1cc(Nc2cc(N3CCN(C)CC3)nc(Sc3ccc(NC(=O)C4CC4)cc3)n2)n[nH]1 [tozasertib]
# Procedure, shortened: as §1
# [8] = compound: Cc1ccc(-n2nc(C(C)(C)C)cc2NC(=O)Nc2ccc(OCCN3CCOCC3)c3ccccc23)cc1 [doramapimod]
# Procedure, shortened: as §1
# [9] = compound: Cc1ccc(NC(=O)c2ccc(CN3CC[C@H](N(C)C)C3)c(C(F)(F)F)c2)cc1Nc1nccc(-c2cncnc2)n1 [bafetinib]
# Procedure, shortened: as §1
# [10] = compound: Cc1cccc(CC(=O)N2CCc3c2ccc(-c2cn(C)c4ncnc(N)c24)c3F)n1
# Procedure, shortened: as §1
# [11] = compound: Cc1cn(-c2cc(NC(=O)c3ccc(C)c(Nc4nccc(-c5cccnc5)n4)c3)cc(C(F)(F)F)c2)cn1 [nilotinib]
# Procedure, shortened: as §1
# [12] = compound: Cc1nc(Nc2n[nH]c3c2CN(C(=O)N[C@H](CN(C)C)c2ccccc2)C3(C)C)c2sccc2n1
# Procedure, shortened: as §1
# [13] = compound: Cc1nc(Nc2ncc(C(=O)Nc3c(C)cccc3Cl)s2)cc(N2CCN(CCO)CC2)n1 [dasatinib]
# Procedure, shortened: as §1
# [14] = compound: Cc1ncc(-c2ccnc(Nc3ccc(S(C)(=O)=O)cc3)n2)n1C(C)C
# Procedure, shortened: as §1
# [15] = compound: Cn1cc(-c2ccc3c(c2)CCN3C(=O)Cc2cccc(C(F)(F)F)c2)c2c(N)ncnc21
# Procedure, shortened: as §1
# [16] = compound: Cn1cc(CNCC2CCN(c3ncc(C(=O)NO)cn3)CC2)c2ccccc21 [quisinostat]
# Procedure, shortened: as §1
# [17] = compound: Cn1cncc1[C@@](N)(c1ccc(Cl)cc1)c1ccc2c(c1)c(-c1cccc(Cl)c1)cc(=O)n2C [tipifarnib]
# Procedure, shortened: as §1
# [18] = compound: NC(=O)Nc1cc(-c2cccc(F)c2)sc1C(=O)N[C@H]1CCCNC1
# Procedure, shortened: as §1
# [19] = compound: NC(=O)c1cnc(N[C@@H]2CCCC[C@@H]2N)nc1Nc1cccc(-n2nccn2)c1
# Procedure, shortened: as §1
# [20] = compound: NC1(c2ccc(-c3nc4ccn5c(=O)[nH]nc5c4cc3-c3ccccc3)cc2)CCC1
# Procedure, shortened: as §1
Target,log2 fold change [1],log2 fold change [2],log2 fold change [3],log2 fold change [4],log2 fold change [5],log2 fold change [6],log2 fold change [7],log2 fold change [8],log2 fold change [9],log2 fold change [10],log2 fold change [11],log2 fold change [12],log2 fold change [13],log2 fold change [14],log2 fold change [15],log2 fold change [16],log2 fold change [17],log2 fold change [18],log2 fold change [19],log2 fold change [20]
HEXIM1 (UniProt O94992),inactive: -0.006,inactive: 0.015,inactive: 0.009,inactive: -0.023,inactive: 0.001,inactive: 0.02,inactive: -0.008,inactive: 0.05,inactive: 0.004,inactive: -0.017,inactive: -0.093,inactive: 0.057,inactive: 0.018,inactive: 0.01,inactive: -0.036,inactive: -0.001,inactive: 0.019,inactive: -0.025,inactive: 0.005,inactive: -0.023
HMGA1 isoform 2 (UniProt P17096),inactive: -0.005,,inactive: 0.125,active: 0.731,inactive: -0.011,inactive: -0.26,,inactive: -0.274,,inactive: -0.491,inactive: 0.209,inactive: 0.014,inactive: 0.091,inactive: 0.395,inactive: -0.099,inactive: 0.289,inactive: 0.168,inactive: -0.018,inactive: -0.064,inactive: -0.101
HIGD1A isoform 2 (UniProt Q9Y241),inactive: 0.138,,,inactive: -0.281,inactive: 0.076,inactive: 0.188,,,,inactive: 0.078,,,inactive: 0.032,,inactive: -0.05,,,,inactive: 0.013,inactive: -0.136
HJURP (UniProt Q8NCD3),inactive: 0.017,inactive: -0.06,inactive: -0.171,,inactive: 0.027,,,inactive: 0.081,inactive: -0.055,,inactive: -0.118,inactive: 0.157,inactive: -0.067,inactive: 0.029,inactive: 0.035,inactive: -0.018,inactive: 0.009,inactive: 0.005,inactive: 0.071,inactive: -0.033
HSD17B7 (UniProt P56937),inactive: 0.105,inactive: 0.022,,inactive: 0.029,inactive: 0.023,inactive: -0.13,inactive: 0.001,,inactive: -0.055,inactive: 0.036,inactive: 0.047,inactive: 0.142,inactive: -0.096,inactive: 0.022,inactive: 0.06,,inactive: 0.197,,inactive: -0.07,inactive: -0.024
HPCAL1 (UniProt P37235),inactive: 0.02,inactive: -0.024,inactive: 0.093,inactive: -0.064,inactive: 0.001,inactive: 0.022,inactive: 0.024,inactive: 0.038,inactive: 0.015,inactive: 0.049,inactive: -0.008,inactive: 0.004,inactive: 0.015,inactive: -0.032,inactive: 0.023,inactive: 0.053,inactive: 0.043,inactive: -0.052,inactive: -0.013,inactive: 0.046
